# According to PubChem BioAssay AID1347075 (National Center for Advancing Translational Sciences (NCATS), 2019):
# The whole screen tested about 400,000 compounds, of which about 5,500 (1.4%) were called active. Inconclusive means that the source gave no clear call. Such entries were picked first, then a sample of the others. Calls follow the shape of the dose curve; as a rule, active = well fitted cell-killing curve with a large enough effect; inconclusive = small, poorly fitted or top-dose-only effect, or effect the other way; inactive = flat fitted curve, though single readings scatter. A potency beside an inconclusive call is a rough fit, not a confirmed value.
# Assay: qHTS assay for MDR1-selective chemotherapeutics: Primary screen using the parental adenocarcinoma cell KB-3-1; also: nearly all actives have a fitted effect of over 60% in size
# Conditions: KB-3-1 viability, CellTiter-Glo ATP luminescence, 72 h; activity change, negative = cytotoxic: at 46.1 µM (top of the series)
# Method in brief: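 Using CellTiter-Glo luminescence, growth of non-resistant KB-3-1 adenocarcinoma cells is assessed 72 h after pin-tool compound addition at 37 °C. Normalized responses across the concentration series yield fitted curves.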
# % is scaled to controls: 0 for no effect and ±100 for the full control effect; potency is read from the fitted curve at half-maximal effect.
Structure (SMILES),Potency,"activity change, negative = cytotoxic"
Cc1ccc(Cl)cc1N1CCN(C(=O)C2CCC(CNS(=O)(=O)c3cccs3)CC2)CC1 (stereo not drawn),"inconclusive: 16.4 µM [cytotoxic, single point]",–
CC(=O)Nc1ccc(/C=C/c2ccnc3ccccc23)cc1[N+](=O)[O-],–,inconclusive: 15.1%
CCOC(=O)c1cnc(Nc2nc3ccccc3o2)nc1CN1CCN(C)CC1,"inconclusive: 29.1 µM [cytotoxic, single point]",–
Cc1nn(C)c(C(=O)Nc2ccc(Cl)c([N+](=O)[O-])c2)c1Cl,"inconclusive: 20.6 µM [rising, partial curve, poor fit]",–
O=C(C[N+]1(CCO)CCOCC1)c1cccc2ccccc12,–,inconclusive: 80.7%
COCCNC(=O)C1CCCN(C(=O)c2ccc(F)c(C)c2)CC1 (stereo not drawn),"inconclusive: 2.59 µM [cytotoxic, partial curve, poor fit]",–
CC1(C)C2CCC1(C)C(OCC[N+](C)(C)CC(=O)OC1CCCCC1)C2 (stereo not drawn),"inconclusive: 29.1 µM [cytotoxic, single point]",–
Cc1ccc(Cc2c(-c3ccc(Cl)cc3)nc3c(C)cc(Br)cn23)cc1,"inconclusive: 29.1 µM [cytotoxic, single point]",–
Clc1ccc(-c2ccc(C=Nc3ccc(N4CCOCC4)cc3)o2)cc1,–,inactive: 15.6%
CC(C)Sc1ccccc1C(=O)Nc1ccc2c(c1)n(C)c(=O)n2C,–,inactive: -3.07%
COc1ccccc1NC(=S)N1CCc2cc(OC)c(OC)cc2C1,"inconclusive: 10.3 µM [rising, partial curve, poor fit]",–
CCOC(=O)N1CCC(=NNC(=O)COc2ccc(C#N)cc2)CC1,"inconclusive: 16.4 µM [rising, single point]",–
COC(=O)CCC(=O)NC(=S)Nc1sc(C)c(C)c1C(N)=O,active: 0.651 µM,–
COc1ccc(OC)c(/C=C/c2nc3ccccc3c(=O)n2-c2ccc(F)c(Cl)c2)c1,"inconclusive: 20.6 µM [cytotoxic, single point]",–
CC(=O)c1cn(CC(=O)Nc2cccc(C)c2C)c2ccccc12,"inconclusive: 29.1 µM [cytotoxic, single point]",–
COCCN1C(=O)COc2ccccc2C1C(=O)Nc1ccc2c(c1)OCCO2 (stereo not drawn),"inconclusive: 25.9 µM [rising, partial curve, poor fit]",–
COc1cc(C2c3c(oc4ccccc4c3=O)C(=O)N2Cc2ccncc2)ccc1O (stereo not drawn),"inconclusive: 29.1 µM [rising, single point]",–
CCOc1ccccc1CN(Cc1ccco1)S(=O)(=O)c1ccc(-n2cnnn2)c(OC)c1,"inconclusive: 29.1 µM [cytotoxic, single point]",–

# Gathered by group: the compounds so far containing fluorine (two)
Structure (SMILES),Potency,"activity change, negative = cytotoxic"
COCCNC(=O)C1CCCN(C(=O)c2ccc(F)c(C)c2)CC1 (stereo not drawn),"inconclusive: 2.59 µM [cytotoxic, partial curve, poor fit]",–
COc1ccc(OC)c(/C=C/c2nc3ccccc3c(=O)n2-c2ccc(F)c(Cl)c2)c1,"inconclusive: 20.6 µM [cytotoxic, single point]",–
